Data as given in doi:10.1101/2020.07.07.190496.

Chains of the proteins cited; added tags and fusions are not shown. Lines headed by an entry give the natural chain unless they say otherwise; changes in a name come on top. Residues count along the entry.
UniProt P07585, residues 31-359: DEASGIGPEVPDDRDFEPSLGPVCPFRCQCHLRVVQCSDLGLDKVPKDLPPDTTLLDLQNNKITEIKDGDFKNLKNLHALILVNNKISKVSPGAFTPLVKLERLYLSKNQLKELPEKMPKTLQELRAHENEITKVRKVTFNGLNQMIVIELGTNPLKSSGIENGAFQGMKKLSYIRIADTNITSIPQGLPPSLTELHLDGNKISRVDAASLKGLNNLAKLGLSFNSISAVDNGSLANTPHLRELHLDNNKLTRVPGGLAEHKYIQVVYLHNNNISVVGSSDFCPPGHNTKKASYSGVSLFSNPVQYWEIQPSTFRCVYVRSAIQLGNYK
UniProt P12830: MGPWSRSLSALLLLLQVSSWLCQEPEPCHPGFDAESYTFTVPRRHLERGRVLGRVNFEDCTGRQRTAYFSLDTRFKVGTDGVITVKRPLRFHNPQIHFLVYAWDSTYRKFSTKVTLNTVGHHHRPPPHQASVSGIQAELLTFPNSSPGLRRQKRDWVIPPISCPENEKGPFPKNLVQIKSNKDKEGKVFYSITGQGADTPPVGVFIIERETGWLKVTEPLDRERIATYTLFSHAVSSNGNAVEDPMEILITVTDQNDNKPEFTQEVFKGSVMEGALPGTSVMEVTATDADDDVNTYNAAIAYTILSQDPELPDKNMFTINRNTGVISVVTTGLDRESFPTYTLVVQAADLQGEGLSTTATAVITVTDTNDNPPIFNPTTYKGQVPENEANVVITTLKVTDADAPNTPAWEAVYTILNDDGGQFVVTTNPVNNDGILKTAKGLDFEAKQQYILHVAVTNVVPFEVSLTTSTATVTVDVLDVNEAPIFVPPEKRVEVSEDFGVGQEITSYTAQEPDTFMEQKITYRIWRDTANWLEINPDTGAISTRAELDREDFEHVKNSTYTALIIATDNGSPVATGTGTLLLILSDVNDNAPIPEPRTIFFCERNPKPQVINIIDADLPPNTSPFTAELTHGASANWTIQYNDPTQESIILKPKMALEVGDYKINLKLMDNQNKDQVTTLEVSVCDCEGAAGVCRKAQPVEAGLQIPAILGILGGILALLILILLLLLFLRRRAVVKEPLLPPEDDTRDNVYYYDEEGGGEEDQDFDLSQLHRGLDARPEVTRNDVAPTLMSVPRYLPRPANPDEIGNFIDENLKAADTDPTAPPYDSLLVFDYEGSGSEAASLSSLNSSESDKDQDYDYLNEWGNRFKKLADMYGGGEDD

Assays:
Assay in all cases: co-IP
[1] = molecular target: hemagglutinin (HA)-tagged Decorin (human (by the printed Gene ID 1634)) (UniProt P07585)
[2] = molecular target: hemagglutinin (HA)-tagged Decorin (human (by the printed Gene ID 1634)) (UniProt P07585); remark: listed apart in the source
[3] = molecular target: Flag/Strep double-tagged E-cadherin (human (by the printed Gene ID 999)) (UniProt P12830)
[4] = molecular target: Flag/Strep double-tagged E-cadherin (human (by the printed Gene ID 999)) (UniProt P12830); remark: listed apart in the source

| Substance | binding [1] | binding [2] | binding [3] | binding [4] |
| --- | --- | --- | --- | --- |
| Flag/Strep double-tagged E-cadherin (from UniProt P12830) | binds | binds | – | – |
| hemagglutinin (HA)-tagged Decorin (from UniProt P07585 31-359) | – | – | binds | binds |

Read-outs that look alike come from different tables or passages of the source. Results are given in words; binding and its absence hold for the method and conditions named. In cells and extracts the contact can be indirect. Binding can be weak; no strength is given.
